According to the supplement of paper PMC10849652:
The other results are listed elsewhere or left out.

Sequences of proteins named here, by UniProt entry; tags and fusion partners are left off. A change or cut given only in a name is not applied to a line headed by its entry.
UniProt O95968: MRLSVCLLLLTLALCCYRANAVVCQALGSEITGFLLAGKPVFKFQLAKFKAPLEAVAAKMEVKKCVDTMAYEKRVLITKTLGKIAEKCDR
UniProt Q6SPF0: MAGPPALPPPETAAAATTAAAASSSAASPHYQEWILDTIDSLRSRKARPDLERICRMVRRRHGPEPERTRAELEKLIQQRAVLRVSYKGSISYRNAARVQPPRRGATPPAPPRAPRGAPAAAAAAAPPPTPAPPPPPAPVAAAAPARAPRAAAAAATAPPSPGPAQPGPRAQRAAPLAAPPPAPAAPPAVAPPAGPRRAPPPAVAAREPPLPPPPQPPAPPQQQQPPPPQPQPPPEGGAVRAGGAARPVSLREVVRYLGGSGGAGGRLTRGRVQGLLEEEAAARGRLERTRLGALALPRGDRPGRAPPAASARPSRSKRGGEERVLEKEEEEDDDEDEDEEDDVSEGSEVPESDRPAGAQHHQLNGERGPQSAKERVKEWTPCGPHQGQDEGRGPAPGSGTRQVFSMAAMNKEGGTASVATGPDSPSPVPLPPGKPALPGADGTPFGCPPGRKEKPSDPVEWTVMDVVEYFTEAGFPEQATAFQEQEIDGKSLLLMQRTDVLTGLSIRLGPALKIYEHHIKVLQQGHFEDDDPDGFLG
UniProt Q6SZW1: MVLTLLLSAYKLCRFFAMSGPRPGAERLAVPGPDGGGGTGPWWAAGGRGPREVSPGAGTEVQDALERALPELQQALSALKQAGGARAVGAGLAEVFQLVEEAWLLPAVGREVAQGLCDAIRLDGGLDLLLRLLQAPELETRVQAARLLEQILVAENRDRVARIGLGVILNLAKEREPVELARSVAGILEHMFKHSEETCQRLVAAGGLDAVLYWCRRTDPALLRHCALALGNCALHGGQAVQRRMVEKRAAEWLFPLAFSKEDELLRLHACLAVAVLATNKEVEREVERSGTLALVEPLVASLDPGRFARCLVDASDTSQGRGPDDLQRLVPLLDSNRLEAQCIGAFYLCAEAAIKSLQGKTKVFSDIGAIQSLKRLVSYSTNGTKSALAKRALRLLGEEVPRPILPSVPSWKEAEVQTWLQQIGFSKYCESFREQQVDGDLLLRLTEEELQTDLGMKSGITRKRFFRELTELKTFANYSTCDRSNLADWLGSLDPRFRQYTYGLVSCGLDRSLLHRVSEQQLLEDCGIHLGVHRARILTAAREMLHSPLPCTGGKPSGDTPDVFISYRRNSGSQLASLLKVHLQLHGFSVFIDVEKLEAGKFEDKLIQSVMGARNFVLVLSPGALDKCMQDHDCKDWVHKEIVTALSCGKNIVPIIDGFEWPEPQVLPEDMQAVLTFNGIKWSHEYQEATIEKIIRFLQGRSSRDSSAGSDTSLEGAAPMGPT
UniProt Q14242: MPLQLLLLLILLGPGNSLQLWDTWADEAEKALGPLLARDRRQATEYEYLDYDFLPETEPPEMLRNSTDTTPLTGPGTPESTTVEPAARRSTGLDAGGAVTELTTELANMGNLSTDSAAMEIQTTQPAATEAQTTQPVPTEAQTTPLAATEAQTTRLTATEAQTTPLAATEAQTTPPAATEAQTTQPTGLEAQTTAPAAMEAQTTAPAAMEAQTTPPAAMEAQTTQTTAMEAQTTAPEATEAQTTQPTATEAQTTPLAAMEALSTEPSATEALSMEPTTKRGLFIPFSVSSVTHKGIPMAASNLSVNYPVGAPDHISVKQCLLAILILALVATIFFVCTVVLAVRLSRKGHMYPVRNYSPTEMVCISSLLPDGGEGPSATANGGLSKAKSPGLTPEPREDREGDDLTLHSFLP
UniProt Q14108: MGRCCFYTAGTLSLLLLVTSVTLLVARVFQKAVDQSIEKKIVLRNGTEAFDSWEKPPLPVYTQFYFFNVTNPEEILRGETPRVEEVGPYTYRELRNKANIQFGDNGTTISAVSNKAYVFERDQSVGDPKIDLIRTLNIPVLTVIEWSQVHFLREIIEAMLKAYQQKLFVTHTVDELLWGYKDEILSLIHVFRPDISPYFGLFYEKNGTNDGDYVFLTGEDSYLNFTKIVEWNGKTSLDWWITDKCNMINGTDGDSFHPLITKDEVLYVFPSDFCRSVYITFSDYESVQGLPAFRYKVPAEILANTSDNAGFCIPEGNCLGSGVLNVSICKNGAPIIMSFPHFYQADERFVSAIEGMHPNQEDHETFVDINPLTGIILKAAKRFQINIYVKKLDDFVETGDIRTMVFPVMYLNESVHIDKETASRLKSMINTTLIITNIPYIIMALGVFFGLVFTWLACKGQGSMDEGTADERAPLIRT
UniProt Q8N9R8: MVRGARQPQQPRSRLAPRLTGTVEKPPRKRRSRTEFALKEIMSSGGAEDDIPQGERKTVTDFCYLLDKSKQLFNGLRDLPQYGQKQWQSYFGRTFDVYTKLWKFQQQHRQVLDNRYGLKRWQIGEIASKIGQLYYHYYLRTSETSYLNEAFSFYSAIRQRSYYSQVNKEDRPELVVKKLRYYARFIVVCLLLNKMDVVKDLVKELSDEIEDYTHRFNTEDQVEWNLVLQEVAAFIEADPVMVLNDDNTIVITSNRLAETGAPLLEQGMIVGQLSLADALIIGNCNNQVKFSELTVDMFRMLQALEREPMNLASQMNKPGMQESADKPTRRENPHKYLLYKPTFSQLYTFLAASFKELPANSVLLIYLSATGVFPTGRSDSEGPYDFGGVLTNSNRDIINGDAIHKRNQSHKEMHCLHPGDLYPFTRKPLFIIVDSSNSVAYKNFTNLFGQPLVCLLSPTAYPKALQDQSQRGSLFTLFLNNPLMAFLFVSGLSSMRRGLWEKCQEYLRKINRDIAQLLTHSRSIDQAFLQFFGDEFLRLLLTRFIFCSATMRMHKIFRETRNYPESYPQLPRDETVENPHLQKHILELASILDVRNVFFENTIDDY
UniProt Q9BQF6: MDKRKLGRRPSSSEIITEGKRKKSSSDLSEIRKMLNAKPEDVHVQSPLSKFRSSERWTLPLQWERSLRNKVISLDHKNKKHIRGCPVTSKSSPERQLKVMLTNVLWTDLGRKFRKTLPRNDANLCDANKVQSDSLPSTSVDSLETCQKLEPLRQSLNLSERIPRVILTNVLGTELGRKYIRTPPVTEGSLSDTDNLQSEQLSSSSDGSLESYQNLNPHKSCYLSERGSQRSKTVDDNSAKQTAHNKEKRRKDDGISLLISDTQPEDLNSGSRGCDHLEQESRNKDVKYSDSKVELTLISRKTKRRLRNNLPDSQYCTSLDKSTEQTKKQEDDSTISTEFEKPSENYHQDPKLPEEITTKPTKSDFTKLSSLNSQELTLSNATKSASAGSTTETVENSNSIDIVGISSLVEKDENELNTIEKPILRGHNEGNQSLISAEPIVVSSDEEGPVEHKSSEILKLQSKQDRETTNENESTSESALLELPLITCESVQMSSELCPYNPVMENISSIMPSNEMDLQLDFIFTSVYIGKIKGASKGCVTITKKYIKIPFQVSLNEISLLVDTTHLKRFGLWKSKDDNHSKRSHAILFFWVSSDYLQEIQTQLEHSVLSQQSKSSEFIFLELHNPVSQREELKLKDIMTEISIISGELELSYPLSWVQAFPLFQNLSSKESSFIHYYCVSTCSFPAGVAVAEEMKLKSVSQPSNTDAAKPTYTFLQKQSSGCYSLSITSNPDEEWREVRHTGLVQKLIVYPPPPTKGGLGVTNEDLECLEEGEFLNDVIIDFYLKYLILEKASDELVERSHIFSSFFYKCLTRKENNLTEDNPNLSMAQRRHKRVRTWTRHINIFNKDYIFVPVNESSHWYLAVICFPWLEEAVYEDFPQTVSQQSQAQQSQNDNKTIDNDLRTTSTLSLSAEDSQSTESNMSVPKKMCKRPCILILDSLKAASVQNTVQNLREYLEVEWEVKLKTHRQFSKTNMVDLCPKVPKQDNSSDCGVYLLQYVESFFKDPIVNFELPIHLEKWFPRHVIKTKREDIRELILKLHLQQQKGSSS
UniProt Q9Y6D0, whole entry, looked up: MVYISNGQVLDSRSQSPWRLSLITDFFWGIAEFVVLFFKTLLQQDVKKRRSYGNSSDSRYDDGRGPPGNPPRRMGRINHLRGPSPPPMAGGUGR
UniProt Q96T21: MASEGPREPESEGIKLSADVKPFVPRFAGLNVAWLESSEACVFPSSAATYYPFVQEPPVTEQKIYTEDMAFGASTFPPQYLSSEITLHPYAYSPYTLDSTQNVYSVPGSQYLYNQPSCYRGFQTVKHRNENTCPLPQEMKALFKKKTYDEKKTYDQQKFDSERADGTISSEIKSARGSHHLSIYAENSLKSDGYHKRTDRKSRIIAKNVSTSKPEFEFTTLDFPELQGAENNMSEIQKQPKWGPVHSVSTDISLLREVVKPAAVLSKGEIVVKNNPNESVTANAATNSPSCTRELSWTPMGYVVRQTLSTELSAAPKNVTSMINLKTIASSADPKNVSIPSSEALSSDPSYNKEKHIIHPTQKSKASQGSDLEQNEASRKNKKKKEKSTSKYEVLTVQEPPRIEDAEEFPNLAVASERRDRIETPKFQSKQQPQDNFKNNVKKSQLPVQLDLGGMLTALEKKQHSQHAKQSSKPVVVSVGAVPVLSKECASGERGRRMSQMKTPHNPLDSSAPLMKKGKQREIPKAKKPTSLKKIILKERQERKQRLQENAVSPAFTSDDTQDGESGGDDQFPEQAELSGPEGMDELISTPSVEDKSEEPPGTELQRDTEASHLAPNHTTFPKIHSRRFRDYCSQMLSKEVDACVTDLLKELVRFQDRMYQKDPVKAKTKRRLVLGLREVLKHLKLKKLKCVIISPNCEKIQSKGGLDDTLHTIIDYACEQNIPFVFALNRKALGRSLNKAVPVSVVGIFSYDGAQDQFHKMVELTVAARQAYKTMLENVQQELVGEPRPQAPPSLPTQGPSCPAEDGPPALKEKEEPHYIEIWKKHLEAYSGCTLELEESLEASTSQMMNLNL
UniProt O75446: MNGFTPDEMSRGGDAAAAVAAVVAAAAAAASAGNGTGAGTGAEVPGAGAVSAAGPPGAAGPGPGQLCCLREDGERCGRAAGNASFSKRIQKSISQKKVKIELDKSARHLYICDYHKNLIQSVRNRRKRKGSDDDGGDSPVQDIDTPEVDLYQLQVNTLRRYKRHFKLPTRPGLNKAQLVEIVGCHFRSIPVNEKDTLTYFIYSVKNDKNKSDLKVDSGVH
UniProt Q9BVL4, whole entry, looked up: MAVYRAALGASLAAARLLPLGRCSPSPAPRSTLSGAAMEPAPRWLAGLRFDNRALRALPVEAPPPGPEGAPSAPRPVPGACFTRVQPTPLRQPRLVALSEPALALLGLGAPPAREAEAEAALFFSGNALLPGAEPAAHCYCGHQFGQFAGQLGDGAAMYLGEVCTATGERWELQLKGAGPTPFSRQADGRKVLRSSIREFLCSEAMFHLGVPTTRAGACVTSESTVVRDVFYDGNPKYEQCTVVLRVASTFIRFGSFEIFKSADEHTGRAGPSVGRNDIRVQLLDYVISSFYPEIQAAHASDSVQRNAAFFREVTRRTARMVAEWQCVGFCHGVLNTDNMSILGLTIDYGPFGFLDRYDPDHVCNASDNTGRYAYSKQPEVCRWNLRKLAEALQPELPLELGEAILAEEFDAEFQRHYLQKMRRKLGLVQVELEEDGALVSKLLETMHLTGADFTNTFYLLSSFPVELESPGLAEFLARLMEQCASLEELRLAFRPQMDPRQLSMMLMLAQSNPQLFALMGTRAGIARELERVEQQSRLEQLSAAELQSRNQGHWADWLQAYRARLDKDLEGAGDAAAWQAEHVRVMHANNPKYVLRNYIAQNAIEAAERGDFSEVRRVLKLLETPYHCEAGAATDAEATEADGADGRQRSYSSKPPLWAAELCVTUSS
UniProt Q96LT4: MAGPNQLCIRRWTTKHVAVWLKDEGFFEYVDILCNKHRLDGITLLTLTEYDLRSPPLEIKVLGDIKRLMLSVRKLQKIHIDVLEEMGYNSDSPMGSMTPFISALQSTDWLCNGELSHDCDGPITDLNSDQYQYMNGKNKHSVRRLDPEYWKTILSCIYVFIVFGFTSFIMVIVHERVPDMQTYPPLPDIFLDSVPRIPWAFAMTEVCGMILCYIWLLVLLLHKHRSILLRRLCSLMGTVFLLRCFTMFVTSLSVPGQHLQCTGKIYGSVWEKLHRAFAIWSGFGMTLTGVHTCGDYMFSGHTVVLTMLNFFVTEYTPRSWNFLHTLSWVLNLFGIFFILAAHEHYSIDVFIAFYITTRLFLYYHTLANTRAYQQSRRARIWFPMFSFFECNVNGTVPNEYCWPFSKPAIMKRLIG
UniProt Q99470: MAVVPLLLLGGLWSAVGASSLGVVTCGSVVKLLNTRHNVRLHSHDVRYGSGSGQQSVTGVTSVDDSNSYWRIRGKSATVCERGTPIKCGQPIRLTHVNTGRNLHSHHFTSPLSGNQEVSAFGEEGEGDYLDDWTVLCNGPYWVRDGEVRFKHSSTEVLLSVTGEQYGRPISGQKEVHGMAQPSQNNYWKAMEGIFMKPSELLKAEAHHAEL

Legend:
Experiment in all cases: log2 fold change, soluble protein after heating vs DMSO (PISA); higher = thermal stabilisation; K562 lysate, 10 uM; active = over 0.2 and 3.5 SD of the protein, either way, in both replicates (recomputed)
[1] = compound: C#Cc1cccc(Nc2ncnc3cc(OCCOC)c(OCCOC)cc23)c1 [erlotinib]
Procedure, shortened: (§1)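 Log-two fold change in thermal stability relative to solvent controls is reported from duplicates. For each sample, crude K562 extract from dounce-homogenised pellets in PBS pH 7.4 with 1 mM MgCl2, at 1 mg/mL protein, was treated with 10 μM compound for 30 min. Aliquots heated for 3 min across 48°C-58°C were pooled, brought to 0.5% NP-40 at 4°C and cleared at 21,000xg for 90 min. The supernatant was quantified by TMTpro 16plex LC-MS/MS with channel sums equalised.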

[2] = compound: C1=CC(=CC=C1C2=NC3=C(N2)C=C(C=C3)C(=O)N)OC4=CC=C(C=C4)Cl
Procedure, shortened: as §1

[3] = compound: CC(C)C1=C2N=C(C=C(N2N=C1)NCC3=CC=CC=C3)NCCCCCCN
Procedure, shortened: as §1

[4] = compound: C1=CC=C(C=C1)C2=NC(=C(N2)C3=CC=NC=C3)C4=CC(=C(C=C4)Cl)O
Procedure, shortened: as §1

[5] = compound: C1CCN(C1)C(=O)NC2=CC=CC(=C2)NC3=NC=C(C(=N3)NCCC4=CN=CN4)Br
Procedure, shortened: as §1

[6] = compound: C1CN(CCC1(CC2=CC=C(C=C2)Cl)N)C3=NC=NC4=C3C=CN4
Procedure, shortened: as §1

[7] = compound: C1COCCN1CCN2C3=CC=CC=C3N=C2NC(=O)C4=CC(=CC=C4)[N+](=O)[O-] [IRAK-1-4 Inhibitor I]
Procedure, shortened: as §1

[8] = compound: CC(=O)c1cnc2ccc(-c3cc(Cl)c(O)c(Cl)c3)nc2c1N[C@H]1CC[C@H](CN(C)C)CC1
Procedure, shortened: as §1

[9] = compound: CC(C)(C)Cn1c(N)nc2ccc(-c3[nH]c(C(C)(C)C)nc3-c3ccc(F)cc3)nc21 [ralimetinib]
Procedure, shortened: as §1

[10] = compound: CC(C)(O)CC(=O)NCCn1ccc2ncnc(Nc3ccc(Oc4cccc(C(F)(F)F)c4)c(Cl)c3)c21
Procedure, shortened: as §1

[11] = compound: CC1=C(C(CC(=O)N1)C2=CC=C(C=C2)C(F)(F)F)C(=O)NC3=C(C=C4C(=C3)C=NN4)F
Procedure, shortened: as §1

[12] = compound: CC1=C(C2=C(C=C1)C(=O)C3=CC=CC=C3N2CCCN)C
Procedure, shortened: as §1

[13] = compound: CC1=C(C=C(C=C1)NC(=O)C2=CC(=CC=C2)C(C)(C)C#N)NC3=CC4=C(C=C3)N=CN(C4=O)C
Procedure, shortened: as §1

[14] = compound: CC1=C(C=C(C=C1)NC(=O)C2=CC(=CC=C2)N(C)C)NC(=O)C3=CC=C(C=C3)O
Procedure, shortened: as §1

[15] = compound: CC1=CC=C(C=C1)SC2=C3C=C(SC3=CN=C2)C(=O)N
Procedure, shortened: as §1

[16] = compound: C1=CC2=NC=CN=C2C=C1/C=C/3\C(=O)NC(=O)S3
Procedure, shortened: as §1

[17] = compound: C=CC(=O)N1CCC[C@@H](n2nc(-c3ccc(Oc4ccccc4)cc3)c3c(N)ncnc32)C1 [ibrutinib]
Procedure, shortened: as §1

[18] = compound: C/C(=N\NC(=O)C1=CC(=CC=C1)S(=O)(=O)N2CCOCC2)/C3=C(C=CC(=C3)Cl)O
Procedure, shortened: as §1

[19] = compound: C1=CC2=C(C=CC(=C2)/C=C\3/C(=O)NC(=NCC4=CC=CS4)S3)N=C1
Procedure, shortened: as §1

[20] = compound: C1=CC=C2C(=C1)C3=NNC4=CC=CC(=C43)C2=O
Procedure, shortened: as §1

Measured: log2 fold change

SCGB1D1 (UniProt O95968)
inactive: [1] -0.084 | [2] -0.171 | [3] 2.32

SAMD1 (UniProt Q6SPF0)
inactive: [4] 0.166 | [5] -0.039 | [6] 0.026 | [7] 0.095 | [8] -0.043 | [9] 0.034 | [10] -0.131 | [11] 0.008 | [12] -0.015 | [13] -0.005 | [14] 0.131 | [15] 0

SARM1 (UniProt Q6SZW1)
inactive: [1] -0.102 | [2] 0.081 | [8] -0.014 | [3] 0.079 | [11] -0.102 | [15] 0.007

SELPLG isoform 2 (UniProt Q14242)
inactive: [8] -0.033 | [15] -0.175

SCARB2 isoform 2 (UniProt Q14108)
inactive: [16] 0.03 | [17] 0.007 | [8] 0.084 | [11] -0.042 | [12] -0.523 | [15] -0.042

SCAI isoform 2 (UniProt Q8N9R8)
inactive: [18] 0.2 | [19] -0.087 | [16] 0.012 | [4] 0.284 | [20] -0.028 | [5] 0.08 | [6] -0.169 | [7] -0.048 | [17] 0.435 | [9] -0.093 | [10] 0.215 | [11] 0.072 | [14] 0.156

SENP7 (UniProt Q9BQF6)
inactive: [4] 0.09 | [5] 0.018 | [6] -0.093 | [7] 0.014 | [9] 0.067 | [10] -0.004 | [11] -0.097 | [12] -0.026 | [13] 0.046 | [14] -0.075

SELENOK (UniProt Q9Y6D0)
inactive: [18] -0.075 | [19] 0.02 | [16] 0.089 | [20] 0.044 | [17] 0.05 | [8] -0.134 | [11] 0.092 | [12] -0.164 | [15] 0.022

SEC16A isoform 2 (UniProt O15027)
inactive: [4] -0.07 | [7] -0.053 | [9] -0.103 | [10] -0.062 | [14] 0.167

SECISBP2 (UniProt Q96T21)
inactive: [18] -0.323 | [19] -0.012 | [16] 0.005 | [4] 0.007 | [20] 0.05 | [5] -0.085 | [6] 0.065 | [7] 0.16 | [17] 0.036 | [8] -0.097 | [9] -0.138 | [10] 0.015 | [11] 0.116 | [12] -0.051 | [13] 0.023 | [14] 0.05 | [15] -0.214

SAP30 (UniProt O75446)
inactive: [18] 0.06 | [19] 0.025 | [16] -0.037 | [20] 0.013 | [5] 0.011 | [6] 0.067 | [17] 0.058 | [8] 0.033 | [11] 0.101 | [12] -0.007 | [13] 0.016 | [15] 0.006

SELENOO (UniProt Q9BVL4)
inactive: [4] 0.147 | [7] 0.138 | [8] -0.085 | [9] -0.176 | [10] -0.048 | [11] -0.03 | [12] 0.015 | [14] -0.175 | [15] 0.041

SAMD8 (UniProt Q96LT4)
inactive: [1] 0.306 | [2] 0.038 | [4] -0.03 | [7] 0.043 | [9] 0.025 | [10] -0.014 | [3] 0.005 | [14] -0.181

SDF2 (UniProt Q99470)
inactive: [16] 0.039 | [17] 0.221 | [8] 0.064 | [11] -0.333 | [13] 0.078 | [15] 0.18
